Data taken from PMC3893878.
No constants are given. Whether binding was seen depends on the method and setting. Binding seen in cells or lysates may run through a third protein. Some entries that bind do so weakly or less than the wild type.

T1: NADPH oxidase isoform 4 (Nox4), nuclear (human (endogenous in AFSC)) (UniProt Q9NPH5)
T1 sequence: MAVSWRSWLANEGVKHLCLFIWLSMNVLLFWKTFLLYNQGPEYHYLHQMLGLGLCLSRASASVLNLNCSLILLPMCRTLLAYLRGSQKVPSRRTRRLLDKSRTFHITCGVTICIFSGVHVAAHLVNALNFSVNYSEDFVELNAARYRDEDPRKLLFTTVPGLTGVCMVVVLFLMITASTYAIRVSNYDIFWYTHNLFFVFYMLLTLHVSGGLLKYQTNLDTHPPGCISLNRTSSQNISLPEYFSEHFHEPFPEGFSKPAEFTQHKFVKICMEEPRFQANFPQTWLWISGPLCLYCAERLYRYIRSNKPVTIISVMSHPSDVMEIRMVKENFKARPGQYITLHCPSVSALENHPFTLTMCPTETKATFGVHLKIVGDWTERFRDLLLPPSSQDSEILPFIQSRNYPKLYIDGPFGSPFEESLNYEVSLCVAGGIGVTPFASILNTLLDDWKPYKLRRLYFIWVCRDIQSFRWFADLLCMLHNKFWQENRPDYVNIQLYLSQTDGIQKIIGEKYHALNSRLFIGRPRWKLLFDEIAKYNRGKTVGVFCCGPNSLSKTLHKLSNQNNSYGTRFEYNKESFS


Target: T1, NADPH oxidase isoform 4 (Nox4), nuclear (human (endogenous in AFSC))
Test: co-IP; nuclear lysates of human AFSC precipitated overnight with anti-Nox4 (Novus), protein A/G agarose; washes with 1% Nonidet P-40, 150 mM NaCl, pH 7.0; Western blot; cells untreated or treated with 2 uM plumbagin

binding | Binder
binds | Matrin 3 (protein, UniProt P43243 1-847) MSKSFQQSSLSRDSQGHGRDLSAAGIGLLAAATQSLSMPASLGRMNQGTARLASLMNLGMSSSLNQQGAHSALSSASTSSHNLQSIFNIGSRGPLPLSSQHRGDADQASNILASFGLSARDLDELSRYPEDKITPENLPQILLQLKRRRTEEGPTLSYGRDGRSATREPPYRVPRDDWEEKRHFRRDSFDDRGPSLNPVLDYDHGSRSQESGYYDRMDYEDDRLRDGERCRDDSFFGETSHNYHKFDSEYERMGRGPGPLQERSLFEKKRGAPPSSNIEDFHGLLPKGYPHLCSICDLPVHSNKEWSQHINGASHSRRCQLLLEIYPEWNPDNDTGHTMGDPFMLQQSTNPAPGILGPPPPSFHLGGPAVGPRGNLGAGNGNLQGPRHMQKGRVETSRVVHIMDFQRGKNLRYQLLQLVEPFGVISNHLILNKINEAFIEMATTEDAQAAVDYYTTTPALVFGKPVRVHLSQKYKRIKKPEGKPDQKFDQKQELGRVIHLSNLPHSGYSDSAVLKLAEPYGKIKNYILMRMKSQAFIEMETREDAMAMVDHCLKKALWFQGRCVKVDLSEKYKKLVLRIPNRGIDLLKKDKSRKRSYSPDGKESPSDKKSKTDGSQKTESSTEGKEQEEKSGEDGEKDTKDDQTEQEPNMLLESEDELLVDEEEAAALLESGSSVGDETDLANLGDVASDGKKEPSDKAVKKDGSASAAAKKKLKKVDKIEELDQENEAALENGIKNEENTEPGAESSENADDPNKDTSENADGQSDENKDDYTIPDEYRIGPYQPNVPVGIDYVIPKTGFYCKLCSLFYTNEEVAKNTHCSSLPHYQKLKKFLNKLAEERRQKKET
binds | p22phox (protein, UniProt P13498 1-195) MGQIEWAMWANEQALASGLILITGGIVATAGRFTQWYFGAYSIVAGVFVCLLEYPRGKRKKGSTMERWGQKYMTAVVKLFGPFTRNYYVRAVLHLLLSVPAGFLLATILGTACLAIASGIYLLAAVRGEQWTPIEPKPRERPQIGGTIKQPPSNPPPRPPAEARKKPSEEEAAVAAGGPPGGPQVNPIPVTDEVV
